PubChem BioAssay AID720505, Drosophila RNAi Screening Center – 2013
The screen tested about 20,000 reagents; shown is an unselected part of those with a known target gene and a result. In the full data, about 2,100 (10%) were called active. 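Raw plate signals without normalisation; calls rest on control-based scores that were not deposited; replicate 2 separates called from uncalled poorly.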 Names joined by + are all predicted targets of the reagent. The record does not give: the amount of reagent, the time to read-out.

Screen: 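Fly regulators or components of the CRAC channel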 (primary screen)
System: Drosophila S2R+ cells
Reagent: long dsRNA against Drosophila genes
Conditions: thapsigargin (2 µM) in calcium-free buffer to empty internal stores, then 2 mM calcium added back
Detection: 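Fluo-4 signal in 384-well plates read on a FLIPR after thapsigargin (2 µM, calcium-free) store depletion and 2 mM calcium add-back; unnormalised mean endpoint per well; screen run twice, selected wells retested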
Direction: calcium signal and retest calcium signal: higher = more calcium entry after store depletion
Active means: 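About 1500 genes called as lowering calcium entry, by varying amounts, judged against per-plate control wells with STIM1 as positive and Rho1 as negative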
Meaning of the calls: active = called as lowering calcium entry; inactive = not called

gene	dsRNA	calcium signal, replicate 1	calcium signal, replicate 2	retest calcium signal, replicate 1	retest calcium signal, replicate 2	call
sbb (scribbler)	DRSC05723	95.9	84.9			inactive
sbb (scribbler)	DRSC07676	137	127			inactive
MESR4 (Misexpression suppressor of ras 4)	DRSC06901	152	105			inactive
CG11052	DRSC14288	116	165			inactive
CG3356	DRSC04358	183	96.2			inactive
CG12679	DRSC20493	86.1	124			inactive
Rtf1	DRSC04085	131	125			inactive
CG33309	DRSC01421	158	94.2			inactive
Cpes (Ceramide phosphoethanolamine synthase)	DRSC04475	79.9	103			inactive
Rac1	DRSC08688	82.4	87.4			inactive
CG9330	DRSC11066	117	122			inactive
CG8064	DRSC16373	183	165			inactive
CG4239	DRSC19885	133	127			inactive
pnut (peanut)	DRSC07666	202	105			inactive
RpL10Ab (Ribosomal protein L10Ab)	DRSC10798	54.6	43.2			active
CG2157	DRSC19836	73.5	97.7			inactive
mtg (mind the gap)	DRSC16256	112	177			inactive
CG17660	DRSC00513	113	305			inactive
CG14180 (retired record)	DRSC10179	78.8	30.3			active
CG13423	DRSC06386	123	117			inactive
ND-B12 (NADH dehydrogenase (ubiquinone) B12 subunit)	DRSC04060	212	83.6			inactive
CG2278	DRSC18226	242	153			inactive
Mms19	DRSC12188	58.8	114			active
CG6985	DRSC16164	145	278			inactive
eya (eyes absent)	DRSC03510	116	272			inactive
Csk (C-terminal Src kinase)	DRSC15223	108	95.1			inactive
Csk (C-terminal Src kinase)	DRSC23272	119	135			inactive
Asator	DRSC17136	122	138			inactive
CG14342	DRSC00372	193	101			inactive
CG14621	DRSC20635	96.6	93.2			inactive
CG12766	DRSC08295	95.8	70.5			inactive
CG43244	DRSC05336	71.5	123			inactive
CG11403	DRSC18532	91.8	171			inactive
CG33299	DRSC01085	112	86.2			inactive
CG6923	DRSC16136	85.6	95.9			inactive
CG5506	DRSC10511	187	193			inactive
CG32095	DRSC22615	85.4	191			inactive
ths (thisbe)	DRSC06153	82.1	151			inactive
ths (thisbe)	DRSC23123	93.2	151			inactive
Usp47 (Ubiquitin specific protease 47)	DRSC11313	78.9	101			inactive
Mur82C (Mucin related 82C)	DRSC12212	113	127	115	79.5	inactive
Ski6	DRSC02491	80.4	101			active
CG17065	DRSC20544	112	115			inactive
Bet1 (Blocked early in transport 1)	DRSC10088	70.3	99.7			active
CG33467	DRSC05525	135	165			inactive
CG33467	DRSC22651	53.6	122			inactive
peb (pebbled)	DRSC18817	230	130			inactive
peb (pebbled)	DRSC23057	89.7	135			inactive

13 entries from above, ordered by “calcium signal, replicate 2”, highest first.
gene	dsRNA	calcium signal, replicate 1	calcium signal, replicate 2	retest calcium signal, replicate 1	retest calcium signal, replicate 2	call
CG11052	DRSC14288	116	165			inactive
CG8064	DRSC16373	183	165			inactive
sbb (scribbler)	DRSC07676	137	127			inactive
CG4239	DRSC19885	133	127			inactive
Rtf1	DRSC04085	131	125			inactive
CG12679	DRSC20493	86.1	124			inactive
CG9330	DRSC11066	117	122			inactive
MESR4 (Misexpression suppressor of ras 4)	DRSC06901	152	105			inactive
pnut (peanut)	DRSC07666	202	105			inactive
Cpes (Ceramide phosphoethanolamine synthase)	DRSC04475	79.9	103			inactive
CG3356	DRSC04358	183	96.2			inactive
CG33309	DRSC01421	158	94.2			inactive
Rac1	DRSC08688	82.4	87.4			inactive

Next reagents follow.
gene	dsRNA	calcium signal, replicate 1	calcium signal, replicate 2	retest calcium signal, replicate 1	retest calcium signal, replicate 2	call
CG33769	DRSC11716	114	147			inactive
Ir94h (Ionotropic receptor 94h)	DRSC15232	243	107			inactive
Npc1a (Niemann-Pick type C-1a)	DRSC03378	150	130			inactive
Or49a (Odorant receptor 49a)	DRSC07493	109	166			inactive
CG15312	DRSC18000	172	140			inactive
Dll (Distal-less)	DRSC04610	125	167			inactive
CG10154	DRSC09707	104	115			inactive
BI-1 (Bax Inhibitor-1)	DRSC10782	72.6	84.6			active
SH3PX1 (SH3 and PX domain containing 1)	DRSC11139	124	90.3			inactive
Ugt303B2 (UDP-glycosyltransferase family 303 member B2)	DRSC14198	218	162			inactive
Ugt303B2 (UDP-glycosyltransferase family 303 member B2)	DRSC22864	76.8	78.2			inactive
CG31559	DRSC12172	115	152			inactive
CG31559	DRSC12270	92.1	138			inactive
Or67d (Odorant receptor 67d)	DRSC10158	102	67.9			inactive
Hmbs (Hydroxymethylbilane synthase)	DRSC08632	134	171			inactive
CG6325	DRSC16020	113	123			inactive
CG42493	DRSC05309	93.1	95.4			inactive
stum (stumble)	DRSC04268	169	130			inactive
stum (stumble)	DRSC04270	187	85.2			inactive
mfr (misfire)	DRSC10543	92.3	66.2			inactive
Gyc89Db (Guanylyl cyclase at 89Db)	DRSC15009	155	208			inactive
CG42514	DRSC10428	101	99.2			inactive
MRG15 (MORF-related gene 15)	DRSC16731	90.3	155			inactive
Syn1 + CG7370	DRSC22768	163	220			inactive
SsRbeta (Signal sequence receptor beta)	DRSC11290	123	88.9			inactive
Ppcs (Phosphopantothenoylcysteine synthetase)	DRSC14127	151	210			inactive
Smyd5 (SET and MYND domain containing, class 5)	DRSC15483	129	189			inactive
CG30022	DRSC22405	96.6	143			inactive
CG31639	DRSC00910	104	148			inactive
Amy-d + Amy-p	DRSC21242	173	89.6			inactive
bru1 (bruno 1)	DRSC01234	72.6	108			active
bru1 (bruno 1)	DRSC01236	268	130			inactive
bru1 (bruno 1)	DRSC01237	204	105			inactive
bru1 (bruno 1)	DRSC01238	155	92.4			inactive
bru1 (bruno 1)	DRSC03485	64	109			active
